The record followed here is patent US8613910B2, “Flavonoids as synergists for enhancing the action of self-tanning substances” (Merck Patent GmbH, priority 2005, dated 2013).

A short description of the data set: Maillard test: DHA with lysine with or without quercetin in ethylene glycol/water. The procedure:
Trial solutions of DHA with lysine with or without quercetin were prepared in an ethylene glycol/water mixture.
It is thus assumed that quercetin is able to prevent the rapid decomposition of DHA in the presence of oxygen.
Maillard test systems used are described in B. Nguyen et al., J. Invest. Dermatol. 120 (2003), 655-661.

In the case of `O=C(CO)CO` [DHA, 1,3-Dihydroxyacetone], the “colour of the reaction solution” value reads like this: (absence of oxygen) “dark-brown solution”; (presence of oxygen, without quercetin) “yellow colour”.

For the molecule `O=c1c(O)c(-c2ccc(O)c(O)c2)oc2cc(O)cc(O)c12` [quercetin, 3,3′,4′,5,7-pentahydroxyflavone], the “colour of the reaction solution” value (presence of oxygen, quercetin present) is given as “changed to brown”.
